Experimental data taken from the supplement of paper PMC8497498.
± gives the standard deviation of the averaged measurements. The list shows a part of the results. The data scatter; read single values as rough.

How the values were obtained:
Details in all cases: 10 µM
[1] = tested on: Plasmodium vivax liver stage (primary human hepatocyte culture); test: hypnozoite quantity inhibition (% inhibition); higher = more active against hypnozoites
[2] = tested on: Plasmodium vivax liver stage (primary human hepatocyte culture); test: schizont net growth area inhibition (% inhibition); higher = more active against liver schizonts
[3] = tested on: primary human hepatocytes; test: hepatic nuclei reduction relative to DMSO (100 - % of negative control); higher = more toxic to hepatocytes
[4] = assay mode: Prophylactic (treated before or shortly after infection), fixed day 6 post-infection
[5] = assay mode: Radical Cure (treated from day 5 post-infection for 3 days), fixed day 8 post-infection

SMILES | hypnozoite quantity inhibition [1, 4] | hypnozoite quantity inhibition [1, 5] | schizont net growth area inhibition [2, 4] | schizont net growth area inhibition [2, 5] | hepatic nuclei reduction [3, 4] [%] | hepatic nuclei reduction [3, 5] [%]
CC(=O)c1sc(NC(=O)Nc2ccc(C)cc2C)nc1C | -30.3 | -7.6 | 17.4 | 16.8 | -11 | -3
FC(F)(F)c1cc(C(F)(F)F)c2ccc3nc(-c4nnco4)cn3c2n1 | -13 | -10 | 49.1 | -23.8 | -6 | -12
Clc1ccc2[nH]c3c(NCCCN4CCOCC4)ncnc3c2c1 | -10.1 | -8.9 | -14.4 | -106 | 1 | -10
CCOC(=O)C1=C(C)N=c2sc(=Cc3ccccc3O)c(=O)n2C1c1ccc(OC)c2ccccc12 (stereo not drawn) | -172 | 47.3 | -147 | 1.2 | -15 | 5
CCc1ccc(Nc2cc(C)c3ccc(O)cc3n2)cc1 | -3.5 | 40.5 | -11.7 | 0.7 | -10 | 3
CC(C(=O)Nc1ccc2oc(-c3ccncc3)nc2c1)c1ccccc1 (stereo not drawn) | 31 | 1 | 27.2 | -23.7 | 1 | -14
COc1ccc(-c2cc(NC(=O)c3ccc(F)cc3Cl)ccc2OC)cc1 | -83 | -38 | 2.4 | -234 | -3 | 8
O=C(NCCN1CCCC1)c1cc(NCCN2CCOCC2)nc2ccc(Cl)cc12 | 82 | 19 | 109 | 71.8 | -6 | -5
COc1ccc(-c2nc(N3CCN(C(=O)C4CCCCC4)CC3)c3c4c(sc3n2)CCCC4)cc1 | 8.8 | 23.7 | 50.1 | -38 | 3 | -6
Nc1ccc(S(=O)(=O)Nc2ncccn2)cc1 | -14 | 49 | 35.3 | 78.9 | -4 | 6
O=[N+]([O-])c1ccc(C=NNc2nc3ccccc3[nH]2)cc1 | 17.7 | -19.8 | 16 | -15 | -1 | -8
Cc1ccc(-c2nc3ccccc3o2)cc1NCc1cc(Cc2ccccc2)ccc1O | 5.1 | 18.3 | -27.3 | -24.9 | -1 | -6
Nc1ncc(-c2ccc(C(F)(F)F)nc2)cc1-c1ccc(C(F)(F)F)nc1 | 97 | 1 | 102 | 104 | 1 | -14
COc1ccc(Br)cc1C1Nc2ccc3ccccc3c2C2=C1C(=O)CC(c1ccccc1)C2 (stereo not drawn) | -51.9 | -0.8 | -36.9 | 35.9 | -9 | -7
COc1cccc(NC(=O)c2c(NC(=O)c3cccnc3)sc3c2CCC3)c1 | -11 | -3 | -6.3 | -27.1 | -7 | -3
Cc1ccc(-c2cc3c(SCC(=O)Nc4cc(C(F)(F)F)ccc4Cl)nccn3n2)cc1 | 5.7 | 67.3 | -36.9 | -59 | 5 | 0
Cc1cc(C)n(-c2ccc(NC(=O)C3CCN(Cc4cnc(C)s4)CC3)cc2)n1 | 13 | 11 | 29 | -14.8 | 2 | -7
O=C(NC1=NCCS1)c1sc2cc(F)ccc2c1Cl | -14 | 11 | -1.6 | -74.2 | -2 | 0
C[C@H]1c2cccc(O)c2C(=O)C2=C(O)[C@]3(O)C(=O)C(C(N)=O)=C(O)[C@@H](N(C)C)C3[C@@H](O)C21 (stereo partly drawn) | -16 ± 37 | 8.1 ± 33 | 46.2 ± 12 | 27.5 ± 35 | -0.5 ± 12 | -0.333 ± 4
CCn1cnc2c(Nc3cc(F)cc(F)c3)nc(C#N)nc21 | -21 | -24 | -93.9 | 8.6 | -11 | -4

SMILES | hypnozoite quantity inhibition [1, 4] | hypnozoite quantity inhibition [1, 5] | schizont net growth area inhibition [2, 4] | schizont net growth area inhibition [2, 5] | hepatic nuclei reduction [3, 4] [%] | hepatic nuclei reduction [3, 5] [%]
NCCN(C(=O)c1ccc(Cl)cc1Cl)c1ccc(OCc2ccc(Cl)cc2)cc1 | 49 | -25 | 32 | -15.2 | 10 | 1
Fc1ccc2[nH]c3c(NCCCN4CCOCC4)ncnc3c2c1 | -14.7 | 24.4 | -13.3 | 11.5 | -4 | 9
CN1CCCC1CCO[C@](C)(c1ccccc1)c1ccc(Cl)cc1 (stereo partly drawn) | 38 | 11 | 93.6 | 61.3 | 11 | -2
COc1ccc(Nc2nc(NN=Cc3ccc(O)cc3)nc(Nc3ccc([N+](=O)[O-])cc3)n2)cc1 | -8.2 | 45.5 | 24.6 | -37.6 | 6 | -11
CC(=O)N1CCc2cc3nc(C)cc(C)c3cc21 | -76 | -46 | -1.3 | -122 | -10 | -2
CCOC(=O)C1=CN(C)C=C(C(=O)OCC)C1c1cc(Br)c(OCC)c(OC)c1 | -43.7 | 42.7 | -26.5 | 40.2 | -12 | -3
c1ccc(-c2ccc(-c3nc4ccccc4[nH]3)cc2)cc1 | -29.6 | 33.6 | 26.5 | -59 | -6 | -7
CCCc1c(C)nc2ccccc2c1O | -26.6 | 58.8 | 63.7 | -33.6 | -8 | -4
OC1=C2C(=Nc3ccccc3SC2c2ccc(Br)cc2)c2ccccc21 (stereo not drawn) | 19 | 42.8 | 2.7 | 14.9 | 6 | -7
Clc1ccc(CN2CCN(C3=NCCN3)CC2)cc1Cl | 35 | -25 | -25.5 | -119 | 2 | -6
COc1cc(-c2nc(-c3ccc(Sc4ccccc4)cc3)c(-c3ccccc3)[nH]2)cc(OC)c1O | -11.7 | 1.5 | 30 | 0.8 | -1 | -6
COc1ccc(Nc2cc(C)nc(NCc3ccccc3)n2)cc1 | 0.9 | 42.7 | 12.5 | -12.9 | 6 | 1
CCCCCCCCCCCCCCCCOP(=O)([O-])OCC[N+](C)(C)C | -40 | 4 | -28.3 | 31.4 | -8 | 11
CCCCC(O)(c1ccc(Cl)cc1)C(CN1CCOCC1)c1ccc(Cl)cc1 (stereo not drawn) | 29.7 | -3.5 | 49.2 | -105 | 1 | -5
COc1cc2c(cc1OC)C1=NNC(=O)C1=NC(C)(C)C2 | -24 | 31.9 | -25.8 | -49.1 | 2 | -2
Cc1cc(Nc2ccc(C(F)(F)F)cc2)n2ccnc2n1 | 0 | -53 | 19.8 | 36.1 | -4 | 4
Cn1c(=O)n(C)c2cc(CNCCNc3ccnc4cc(Cl)ccc34)ccc21 | -41.4 | 45 | -14.5 | -18.3 | 5 | 3
CN(C)c1ccc(C=Cc2nc(=O)c3ccccc3o2)cc1 | 47 | 22.1 | 58.3 | -34.3 | -7 | 12
CCN(Cc1ccccc1)C1CCN(Cc2cc(Br)ccc2O)CC1 | 12 | 31.9 | -5.7 | 10.5 | 3 | -10
CCNCc1cc(Nc2ccnc3cc(Cl)ccc23)ccc1O | -46 | 18 | 90.4 | 30.5 | -1 | -5

Complete entries from above. Values in the order: hypnozoite quantity inhibition [1, 4] | hypnozoite quantity inhibition [1, 5] | schizont net growth area inhibition [2, 4] | schizont net growth area inhibition [2, 5] | hepatic nuclei reduction [3, 4] [%] | hepatic nuclei reduction [3, 5] [%]
Fc1ccc2[nH]c3c(NCCCN4CCOCC4)ncnc3c2c1 is listed as -14.7 | 24.4 | -13.3 | 11.5 | -4 | 9
COc1ccc(Nc2nc(NN=Cc3ccc(O)cc3)nc(Nc3ccc([N+](=O)[O-])cc3)n2)cc1 is listed as -8.2 | 45.5 | 24.6 | -37.6 | 6 | -11
CC(=O)N1CCc2cc3nc(C)cc(C)c3cc21 is listed as -76 | -46 | -1.3 | -122 | -10 | -2
CCNCc1cc(Nc2ccnc3cc(Cl)ccc23)ccc1O is listed as -46 | 18 | 90.4 | 30.5 | -1 | -5

More records follow.

SMILES | hypnozoite quantity inhibition [1, 4] | hypnozoite quantity inhibition [1, 5] | schizont net growth area inhibition [2, 4] | schizont net growth area inhibition [2, 5] | hepatic nuclei reduction [3, 4] [%] | hepatic nuclei reduction [3, 5] [%]
CC(=O)NCC1CN(c2ccc(-c3ccc(CNCc4cn[nH]n4)cc3)c(F)c2)C(=O)O1 (stereo not drawn) | 20 | -10 | 73 | 35.5 | -4 | -2
CSc1ccccc1C(=O)Nc1nc(-c2ccccn2)cs1 | 53.1 | 45.5 | 85.5 | 18 | -3 | 2
CCOc1ccc(-n2cc(-c3ccccc3)c3c(SCc4cc(C)ccc4C)ncnc32)cc1 | -8 | 40.5 | -47.9 | 72.7 | -3 | 17
c1ccc2cc3c(Nc4ccc(N5CCOCC5)cc4)ccnc3cc2c1 | -13.2 | 35.9 | -80.2 | -19.3 | -7 | -4
CCC[C@@H]1C[C@@H](C(=O)N[C@@H]([C@H]2O[C@H](SC)[C@H](O)[C@@H](O)[C@H]2O)[C@H](C)Cl)N(C)C1 | -22 | 23 | 24.4 | 32.7 | -6 | -3
CC1(CN2CCC(n3c(O)nc4ccccc43)CC2)OCc2ccccc2-n2cccc21 (stereo not drawn) | 12 | 42 | -48.1 | -63.3 | 0 | 8
Cn1c(=O)c2c(S(C)(=O)=O)snc2n(C)c1=O | -3 | -106 | -38.6 | -1.8 | -7 | 11
COc1ccc2nc(N)nc(C)c2c1 | -14.7 | 8.4 | -1.2 | 10.4 | -11 | -1
Cc1ccc2[nH]c(C3CCCNC3)c(-c3ccncc3)c2c1 (stereo not drawn) | 5 | -23 | 52.6 | -104 | -3 | -5
FC(F)(F)c1cccc(Nc2nc(-c3ccccc3)nc3ncccc23)c1 | -2.8 | 51.9 | 43.1 | -6.4 | -13 | -6
CCOC(=O)c1cnc2ccc(OC)cc2c1Nc1ccc(N2CCN(C)CC2)cc1 | 11.4 | 18.3 | -5 | 21.8 | 6 | -5
CCOC(=O)c1cn(CC)c2cc(N(C)CCc3ccc(OC)c(OC)c3)c(F)cc2c1=O | 10.7 | 21 | 5 | -9.3 | 6 | 0
NC(CC(=O)c1ccc(Cl)cc1Cl)C(Cl)(Cl)Cl (stereo not drawn) | -9 | -34 | -58 | -15.4 | -9 | -3
Oc1c(CN2CCN(c3ccccc3F)CC2)cc(Br)c2cccnc12 | -18.4 | 63.4 | -18 | 42.2 | -8 | 7
Nc1nc(N)c2c3c(sc2n1)CN(Cc1ccccc1)CC3 | 4 | -51 | 5.2 | -101 | -5 | -11
CCC(=O)Nc1nnc(Cc2ccc(OC)c(OC)c2)s1 | -28.1 | 19.8 | -16 | -3.6 | -15 | 4
CO[C@@H](C(=O)N1Cc2[nH]nc(NC(=O)c3ccc(N4CCN(C)CC4)cc3)c2C1)c1ccccc1 | 34 | -4 | -22.4 | 17.1 | -1 | -3
COc1cc(OC)c(N(C)C(=O)c2cc3c(s2)-c2ccccc2S(=O)(=O)C3)cc1Cl | 2.5 | 18.3 | 56.6 | -218 | -4 | -9
